Test results published in paper PMC12697906.
No constants are given. Whether binding was seen depends on the method and setting. In cells and extracts the contact can be indirect. Some results given as binding are weak or reduced against the parent protein; the word gives no strength. Each block holds one molecule with its values, some of them ahead of it.

The chains behind the UniProt entries cited, without tags or fusion partners.
UniProt P67809: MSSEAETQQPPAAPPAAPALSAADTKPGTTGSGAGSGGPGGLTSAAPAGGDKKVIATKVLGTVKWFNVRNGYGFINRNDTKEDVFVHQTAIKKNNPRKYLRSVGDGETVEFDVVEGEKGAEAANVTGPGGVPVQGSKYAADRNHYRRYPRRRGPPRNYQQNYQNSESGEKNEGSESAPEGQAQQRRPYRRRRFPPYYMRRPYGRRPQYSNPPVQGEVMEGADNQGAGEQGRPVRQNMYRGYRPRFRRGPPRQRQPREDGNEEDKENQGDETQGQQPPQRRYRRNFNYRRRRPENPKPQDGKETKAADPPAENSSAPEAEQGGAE
UniProt O60678: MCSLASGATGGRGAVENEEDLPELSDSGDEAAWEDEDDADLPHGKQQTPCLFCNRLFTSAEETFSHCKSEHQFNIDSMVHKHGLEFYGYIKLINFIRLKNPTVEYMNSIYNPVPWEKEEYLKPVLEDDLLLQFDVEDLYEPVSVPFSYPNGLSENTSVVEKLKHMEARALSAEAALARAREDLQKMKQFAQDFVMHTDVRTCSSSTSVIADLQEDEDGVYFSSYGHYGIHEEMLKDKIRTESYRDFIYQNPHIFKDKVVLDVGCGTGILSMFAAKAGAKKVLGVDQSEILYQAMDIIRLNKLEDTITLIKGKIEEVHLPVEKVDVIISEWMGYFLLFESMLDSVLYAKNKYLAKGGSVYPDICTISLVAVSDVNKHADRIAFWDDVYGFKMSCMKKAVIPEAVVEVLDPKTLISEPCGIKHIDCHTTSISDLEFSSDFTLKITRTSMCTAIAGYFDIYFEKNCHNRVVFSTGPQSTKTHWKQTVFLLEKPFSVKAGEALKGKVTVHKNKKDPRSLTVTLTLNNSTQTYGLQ
UniProt P52294: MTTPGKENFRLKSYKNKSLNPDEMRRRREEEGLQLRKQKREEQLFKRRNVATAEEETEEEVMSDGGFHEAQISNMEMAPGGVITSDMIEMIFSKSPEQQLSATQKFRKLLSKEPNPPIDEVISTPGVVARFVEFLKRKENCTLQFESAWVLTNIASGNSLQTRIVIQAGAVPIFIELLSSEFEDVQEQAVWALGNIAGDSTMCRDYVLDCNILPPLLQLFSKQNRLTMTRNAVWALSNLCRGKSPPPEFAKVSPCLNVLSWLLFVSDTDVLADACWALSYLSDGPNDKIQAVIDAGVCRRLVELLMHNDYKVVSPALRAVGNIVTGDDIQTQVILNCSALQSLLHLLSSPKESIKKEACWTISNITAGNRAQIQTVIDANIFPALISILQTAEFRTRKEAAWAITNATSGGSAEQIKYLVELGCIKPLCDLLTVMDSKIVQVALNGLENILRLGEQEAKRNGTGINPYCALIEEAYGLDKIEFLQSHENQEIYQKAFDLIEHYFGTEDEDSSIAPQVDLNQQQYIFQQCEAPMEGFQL
UniProt Q14974: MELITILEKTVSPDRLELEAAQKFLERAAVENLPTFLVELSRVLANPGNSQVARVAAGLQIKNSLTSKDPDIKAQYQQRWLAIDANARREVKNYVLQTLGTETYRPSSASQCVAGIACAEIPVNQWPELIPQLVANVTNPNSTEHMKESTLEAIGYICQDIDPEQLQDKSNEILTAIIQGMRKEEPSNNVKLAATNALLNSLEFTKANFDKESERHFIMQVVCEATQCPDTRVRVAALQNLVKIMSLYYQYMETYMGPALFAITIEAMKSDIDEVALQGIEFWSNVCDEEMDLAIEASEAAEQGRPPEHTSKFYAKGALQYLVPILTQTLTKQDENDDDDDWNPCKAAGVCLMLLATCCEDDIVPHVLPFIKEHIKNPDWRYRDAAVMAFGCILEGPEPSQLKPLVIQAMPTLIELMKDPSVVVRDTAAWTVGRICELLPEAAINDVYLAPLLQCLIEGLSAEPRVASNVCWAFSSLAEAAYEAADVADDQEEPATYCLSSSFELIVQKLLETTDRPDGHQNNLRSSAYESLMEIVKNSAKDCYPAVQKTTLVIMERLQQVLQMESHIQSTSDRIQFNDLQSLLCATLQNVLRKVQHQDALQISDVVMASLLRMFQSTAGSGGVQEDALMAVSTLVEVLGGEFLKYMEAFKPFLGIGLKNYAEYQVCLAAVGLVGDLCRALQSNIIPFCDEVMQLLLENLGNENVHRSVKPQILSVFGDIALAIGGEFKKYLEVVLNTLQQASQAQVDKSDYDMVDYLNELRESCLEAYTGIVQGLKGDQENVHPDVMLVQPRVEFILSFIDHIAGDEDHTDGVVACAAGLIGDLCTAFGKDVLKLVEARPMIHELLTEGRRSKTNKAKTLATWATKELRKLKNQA

Experiments:
[1] = target: Y-box binding protein 1 (YBX1) (human (endogenous in SW480 and HEK293T)) (UniProt P67809); test: co-IP; co-IP of YBX1 with importins in control, PRMT3-KO and PRMT3-OE cells; IP lysis buffer, antibody overnight at 4 °C, protein A/G agarose beads, western blot
[2] = target: T1, lysine-specific demethylase 4A (KDM4A) (human (endogenous in SW480)) (UniProt O75164); test: co-IP; endogenous proteins, reciprocal co-IP in SW480 cells with radiation (4 Gy) treatment; IP lysis buffer, antibody overnight at 4 °C, protein A/G agarose beads, western blot
T1 sequence: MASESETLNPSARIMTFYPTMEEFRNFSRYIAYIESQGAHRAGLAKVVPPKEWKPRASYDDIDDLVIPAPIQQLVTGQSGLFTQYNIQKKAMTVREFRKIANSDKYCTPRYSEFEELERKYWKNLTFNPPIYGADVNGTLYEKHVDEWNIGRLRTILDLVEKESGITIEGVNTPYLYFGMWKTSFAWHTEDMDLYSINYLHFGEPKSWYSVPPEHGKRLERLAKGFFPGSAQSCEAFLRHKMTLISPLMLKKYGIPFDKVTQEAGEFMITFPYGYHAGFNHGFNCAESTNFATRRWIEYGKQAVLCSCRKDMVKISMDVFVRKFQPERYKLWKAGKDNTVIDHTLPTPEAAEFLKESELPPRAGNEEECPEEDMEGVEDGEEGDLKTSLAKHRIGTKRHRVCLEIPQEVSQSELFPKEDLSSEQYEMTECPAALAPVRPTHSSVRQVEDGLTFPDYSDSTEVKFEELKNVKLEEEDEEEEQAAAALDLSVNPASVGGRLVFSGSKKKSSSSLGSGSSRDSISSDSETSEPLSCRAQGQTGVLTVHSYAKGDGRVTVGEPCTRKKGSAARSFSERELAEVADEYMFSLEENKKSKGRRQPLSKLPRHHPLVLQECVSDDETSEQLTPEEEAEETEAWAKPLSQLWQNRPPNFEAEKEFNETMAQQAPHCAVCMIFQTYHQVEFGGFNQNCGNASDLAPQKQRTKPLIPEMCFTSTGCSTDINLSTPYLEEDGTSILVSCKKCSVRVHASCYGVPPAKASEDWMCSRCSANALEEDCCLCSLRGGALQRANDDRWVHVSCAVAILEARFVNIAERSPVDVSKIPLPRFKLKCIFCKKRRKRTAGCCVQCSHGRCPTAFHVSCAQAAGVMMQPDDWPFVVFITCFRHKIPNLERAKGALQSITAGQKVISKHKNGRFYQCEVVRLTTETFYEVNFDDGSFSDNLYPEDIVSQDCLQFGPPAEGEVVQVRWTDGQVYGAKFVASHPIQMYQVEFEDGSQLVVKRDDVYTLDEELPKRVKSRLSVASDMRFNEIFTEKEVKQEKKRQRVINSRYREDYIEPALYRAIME

[3] = target: PRMT3 (human (endogenous in SW480 and HEK293T)) (UniProt O60678); test: co-IP; endogenous proteins, reciprocal co-IP in SW480 and HEK293T cells; IP lysis buffer, 2 mg lysate with antibody overnight at 4 °C, protein A/G agarose beads, western blot
[4] = target: Y-box binding protein 1 (YBX1) (human (endogenous in SW480 and HEK293T)) (UniProt P67809); test: co-IP; endogenous proteins, reciprocal co-IP in SW480 cells with radiation (4 Gy) treatment; IP lysis buffer, antibody overnight at 4 °C, protein A/G agarose beads, western blot

binding [1]: binds
Molecule: importin α5 (from UniProt P52294 1-538)

binding [2]: binds
binding [3]: binds
Molecule: Y-box binding protein 1 (YBX1) (from UniProt P67809 1-324)

binding [1]: binds
Molecule: importin β (from UniProt Q14974 1-876)

binding [4]: binds
B1: lysine-specific demethylase 4A (KDM4A) (enzyme, UniProt O75164 1-1064)
chain: MASESETLNPSARIMTFYPTMEEFRNFSRYIAYIESQGAHRAGLAKVVPPKEWKPRASYDDIDDLVIPAPIQQLVTGQSGLFTQYNIQKKAMTVREFRKIANSDKYCTPRYSEFEELERKYWKNLTFNPPIYGADVNGTLYEKHVDEWNIGRLRTILDLVEKESGITIEGVNTPYLYFGMWKTSFAWHTEDMDLYSINYLHFGEPKSWYSVPPEHGKRLERLAKGFFPGSAQSCEAFLRHKMTLISPLMLKKYGIPFDKVTQEAGEFMITFPYGYHAGFNHGFNCAESTNFATRRWIEYGKQAVLCSCRKDMVKISMDVFVRKFQPERYKLWKAGKDNTVIDHTLPTPEAAEFLKESELPPRAGNEEECPEEDMEGVEDGEEGDLKTSLAKHRIGTKRHRVCLEIPQEVSQSELFPKEDLSSEQYEMTECPAALAPVRPTHSSVRQVEDGLTFPDYSDSTEVKFEELKNVKLEEEDEEEEQAAAALDLSVNPASVGGRLVFSGSKKKSSSSLGSGSSRDSISSDSETSEPLSCRAQGQTGVLTVHSYAKGDGRVTVGEPCTRKKGSAARSFSERELAEVADEYMFSLEENKKSKGRRQPLSKLPRHHPLVLQECVSDDETSEQLTPEEEAEETEAWAKPLSQLWQNRPPNFEAEKEFNETMAQQAPHCAVCMIFQTYHQVEFGGFNQNCGNASDLAPQKQRTKPLIPEMCFTSTGCSTDINLSTPYLEEDGTSILVSCKKCSVRVHASCYGVPPAKASEDWMCSRCSANALEEDCCLCSLRGGALQRANDDRWVHVSCAVAILEARFVNIAERSPVDVSKIPLPRFKLKCIFCKKRRKRTAGCCVQCSHGRCPTAFHVSCAQAAGVMMQPDDWPFVVFITCFRHKIPNLERAKGALQSITAGQKVISKHKNGRFYQCEVVRLTTETFYEVNFDDGSFSDNLYPEDIVSQDCLQFGPPAEGEVVQVRWTDGQVYGAKFVASHPIQMYQVEFEDGSQLVVKRDDVYTLDEELPKRVKSRLSVASDMRFNEIFTEKEVKQEKKRQRVINSRYREDYIEPALYRAIME
